From the odorant receptor screen of Mainland et al. (2015) come the findings set out here.

Chains of the proteins cited; added tags and fusions are not shown. A line that says so, or that is headed by a name, gives the form on record, which may keep a tag or linker.
OR4F14 A297T, as listed by the source, stated change not applied: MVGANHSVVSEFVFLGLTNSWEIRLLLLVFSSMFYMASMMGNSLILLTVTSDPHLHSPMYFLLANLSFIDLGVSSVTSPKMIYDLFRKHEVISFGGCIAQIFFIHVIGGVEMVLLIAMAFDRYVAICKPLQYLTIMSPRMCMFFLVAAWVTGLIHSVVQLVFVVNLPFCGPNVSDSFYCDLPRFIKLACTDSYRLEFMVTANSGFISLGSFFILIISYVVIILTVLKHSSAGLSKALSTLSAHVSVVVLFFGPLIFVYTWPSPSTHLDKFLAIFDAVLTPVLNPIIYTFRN

Some test systems named below: OR4B1 clone 1189; OR4C11 clone 1244; OR4C12 V283L clone 1155; OR4C15 clone 1337; OR4C15 clone 1449; OR4C3 clone 1284; OR4C3 clone 1480; OR4C46 K288R clone 1483; OR4C5 clone 1307; OR4D1 R54Q clone 1467; OR4D1 clone 1316; OR4D10 clone 1174; OR4D11 clone 1243; OR4D5 clone 1122; OR4D6 D96G clone 1225; OR4D9 clone 1217; OR4F14 A297T clone 1059.
What all share (test): odorant receptor activation (CRE luciferase / Renilla) (fold of no-odor wells); higher = more activation
What all share (conditions): 100 µM

Assay [1] deals with OR4C16 V25L/T76A/L259P clone 1237.
The subject of assay [2] is OR4D2 C97S/L187F clone 1285.
The subject of assay [3] is OR4E2 V118M/Q234R clone 1274.

The structures appear in SMILES notation. This is one part of the list. Each value is one well over the wells without odorant, computed here; the data are noisy.

As to `CCCCCC(=O)O` [caproic acid], the odorant receptor activation in the assay with OR4B1 clone 1189 stood at 1.05; in the assay on OR4C11 clone 1244, 0.892; in the assay on OR4C12 V283L clone 1155, 0.996; in the assay on OR4C15 clone 1337 it was 0.98; in the assay on OR4C15 clone 1449, 0.142; in assay [1], 0.695. The odorant receptor activation with OR4C3 clone 1284 worked out at 0.75; in the assay on OR4C3 clone 1480, 0.86; in the assay with OR4C46 K288R clone 1483 it was 0.973; in the assay with OR4C5 clone 1307 it was 0.794; in the assay with OR4D1 R54Q clone 1467, 1.08; in the assay with OR4D1 clone 1316 it was 0.921. Moreover, the odorant receptor activation in the assay with OR4D10 clone 1174 came to 1.13; in the assay with OR4D11 clone 1243, 0.727; in assay [2] it was 0.943; in the assay with OR4D5 clone 1122, 0.884; in the assay on OR4D6 D96G clone 1225 it was 1.09; in the assay with OR4D9 clone 1217, 1.03. The values for the odorant receptor activation (in assay [3]; in the assay on OR4F14 A297T clone 1059) were 1.22 and 0.863, respectively.
Consider `CCCCCCCC=O` [octyl aldehyde], for which the odorant receptor activation in the assay with OR4B1 clone 1189 worked out at 0.765; in the assay with OR4C11 clone 1244, 1.09; in the assay with OR4C12 V283L clone 1155 it was 1.05; in the assay with OR4C15 clone 1337 it was 1.21; in the assay with OR4C15 clone 1449, 0.831; in assay [1], 0.78. The odorant receptor activation in the assay on OR4C3 clone 1284 was determined as 1.3; in the assay with OR4C3 clone 1480, 0.931; with OR4C46 K288R clone 1483, 1.03; in the assay on OR4C5 clone 1307 it was 1.2; in the assay with OR4D1 R54Q clone 1467, 1.42; in the assay with OR4D1 clone 1316 it was 0.881. The odorant receptor activation with OR4D10 clone 1174 was 0.863; with OR4D11 clone 1243, 1.04; in assay [2], 1.08; in the assay with OR4D5 clone 1122, 0.792; in the assay on OR4D6 D96G clone 1225 it was 0.834; in the assay on OR4D9 clone 1217, 1.02. In addition, the values for the odorant receptor activation (in [3]; in the assay with OR4F14 A297T clone 1059) were 1.32 and 1, respectively.
`O=CCc1ccccc1` [phenyl acetaldehyde]: the odorant receptor activation in the assay on OR4B1 clone 1189 came to 0.736; in the assay on OR4C11 clone 1244 it was 1.14; in the assay with OR4C12 V283L clone 1155, 0.806; in the assay on OR4C15 clone 1337, 1.21; with OR4C15 clone 1449, 1.59; in assay [1] it was 1.89. In addition, the odorant receptor activation with OR4C3 clone 1284 was determined as 1.23; in the assay on OR4C3 clone 1480 it was 1.33; with OR4C46 K288R clone 1483 it was 1.25; in the assay with OR4C5 clone 1307, 1.32; in the assay with OR4D1 R54Q clone 1467 it was 1.43; in the assay on OR4D1 clone 1316, 1.4. Moreover, the odorant receptor activation worked out at 0.876 with OR4D10 clone 1174; 1.04 in the assay with OR4D11 clone 1243; 0.888 in [2]; 1.45 in the assay with OR4D5 clone 1122; 1.33 in the assay with OR4D6 D96G clone 1225; 1.21 in the assay with OR4D9 clone 1217. Moreover, the odorant receptor activation in [3] came to 1.43; in the assay on OR4F14 A297T clone 1059, 1.42.
In the case of `CCC1(O)C2(C)CCC(C2)C1(C)C` (stereo not given) [2-ethylfenchol], the odorant receptor activation in the assay with OR4B1 clone 1189 amounted to 1.18; in the assay on OR4C11 clone 1244, 1.12; in the assay on OR4C12 V283L clone 1155, 1.29; with OR4C15 clone 1337, 1.01; with OR4C15 clone 1449, 0.772; in assay [1], 0.846. Also, the odorant receptor activation was 0.936 in the assay on OR4C3 clone 1284; 1.2 with OR4C3 clone 1480; 1.27 with OR4C46 K288R clone 1483; 0.866 in the assay on OR4C5 clone 1307; 1.07 with OR4D1 R54Q clone 1467; 0.792 in the assay with OR4D1 clone 1316. The odorant receptor activation worked out at 1.11 in the assay with OR4D10 clone 1174; 1.42 in the assay on OR4D11 clone 1243; 1 in assay [2]; 0.805 in the assay on OR4D5 clone 1122; 0.681 in the assay with OR4D6 D96G clone 1225; 0.935 in the assay with OR4D9 clone 1217. Moreover, the odorant receptor activation in assay [3] was determined as 0.685; in the assay on OR4F14 A297T clone 1059, 4.54.
As to `CC(C)=CCCC(C)=CC=O` [citral], the odorant receptor activation is 1 with OR4B1 clone 1189; 1.09 in the assay on OR4C11 clone 1244; 1.22 with OR4C12 V283L clone 1155; 1.1 with OR4C15 clone 1337; 0.183 with OR4C15 clone 1449; 0.948 in assay [1]. The odorant receptor activation in the assay with OR4C3 clone 1284 was 0.913; with OR4C3 clone 1480 it was 1.03; with OR4C46 K288R clone 1483, 1.16; with OR4C5 clone 1307 it was 1.23; in the assay with OR4D1 R54Q clone 1467 it was 1.35; with OR4D1 clone 1316, 1.25. Also, the odorant receptor activation with OR4D10 clone 1174 amounted to 0.971; in the assay on OR4D11 clone 1243, 1.11; in [2], 1.28; with OR4D5 clone 1122, 0.839; with OR4D6 D96G clone 1225, 0.942; in the assay on OR4D9 clone 1217, 0.978. For the same molecule, the figures for the odorant receptor activation (in assay [3]; in the assay on OR4F14 A297T clone 1059) were 1.31 and 1.16, respectively.
In the case of `CC(=O)C(C)=O` [diacetyl], the odorant receptor activation in the assay on OR4B1 clone 1189 worked out at 1.16; with OR4C11 clone 1244, 1.23; in the assay with OR4C12 V283L clone 1155 it was 1.44; with OR4C15 clone 1337 it was 1.14; in the assay with OR4C15 clone 1449 it was 1.36; in assay [1], 0.897. The odorant receptor activation in the assay with OR4C3 clone 1284 was found to be 1.42; with OR4C3 clone 1480, 1.22; with OR4C46 K288R clone 1483 it was 1.17; in the assay on OR4C5 clone 1307, 1.25; in the assay on OR4D1 R54Q clone 1467, 1.54; in the assay with OR4D1 clone 1316, 1.28. For the same molecule, the odorant receptor activation was 0.991 in the assay with OR4D10 clone 1174; 1.14 in the assay with OR4D11 clone 1243; 1.17 in [2]; 1.01 in the assay with OR4D5 clone 1122; 1.17 in the assay with OR4D6 D96G clone 1225; 1 with OR4D9 clone 1217. The odorant receptor activation in assay [3] came out at 0.927; with OR4F14 A297T clone 1059, 1.04.
With `O=C1CCCCCCCCCCCC(=O)OCCO1` [ethylene brassylate], the odorant receptor activation in the assay with OR4B1 clone 1189 was found to be 1.86; in the assay on OR4C11 clone 1244 it was 1.49; in the assay with OR4C12 V283L clone 1155 it was 1.43; in the assay with OR4C15 clone 1337, 1.3; with OR4C15 clone 1449, 2.06; in assay [1] it was 1.14. The odorant receptor activation in the assay on OR4C3 clone 1284 amounted to 1.49; in the assay on OR4C3 clone 1480, 1.38; in the assay with OR4C46 K288R clone 1483 it was 1.16; in the assay on OR4C5 clone 1307, 1.63; with OR4D1 R54Q clone 1467, 1.78; with OR4D1 clone 1316 it was 1.52. Also, the odorant receptor activation stood at 1.75 in the assay with OR4D10 clone 1174; 1.69 in the assay with OR4D11 clone 1243; 1.53 in [2]; 1.08 in the assay with OR4D5 clone 1122; 1.46 in the assay on OR4D6 D96G clone 1225; 1.55 with OR4D9 clone 1217. Besides, the odorant receptor activation (in assay [3]; in the assay with OR4F14 A297T clone 1059) was 1.52 throughout.
